PubChem BioAssay AID743454, Peter MacCallum Cancer Centre – 2014

Screen: 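Genes whose loss kills vorinostat-resistant colon cancer cells under vorinostat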 (primary screen)
Cell system: human HCT116-VR colon cancer cells, selected for vorinostat resistance
Knock-down reagent: siRNA pool against human genes, 40 nM siRNA pool
Timing: vorinostat for 24 h, read-out about 72 h after transfection
Treatment: vorinostat at 2.5 µM final
Measured: 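Cell viability by CellTiter-Fluor and caspase 3/7 activity by luminescence, each scaled to mock wells per plate, duplicates averaged, then robust z-scored over all plates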
Reading the numbers: viability robust z-score: higher = more viable cells than screen typical; caspase robust z-score: higher = more caspase 3/7 activity than screen typical
Hit rule: 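a knock-down is a hit when classed RV1 or RV2 for lowered viability, or CA1 or CA2 for caspase activation; those lethal without drug were dropped; hits were retested singly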
In all, the deposit lists about 18,000 reagents; shown is an unselected part. In the full data, 450 (2.5%) got an active call. 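Single biological run; no consistent viability z cut-off exists, so the class columns, not z-scores, define the calls.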

target	viability hit class	caspase hit class	viability robust z-score	caspase robust z-score	Call
PALM (paralemmin)	no change	CA1 (caspase activation)	-1.18	6.04	active
PRDM11 (PR/SET domain 11)	no change	no change	0.14	-0.94	inactive
DMAC2 (distal membrane arm assembly component 2)	no change	no change	-0.67	1.54	inactive
MAP2K3 (mitogen-activated protein kinase kinase 3)	no change	no change	-1.76	0.04	inactive
CLSTN1 (calsyntenin 1)	no change	no change	-0.07	1.19	inactive
PRKAB2 (protein kinase AMP-activated non-catalytic subunit beta 2)	no change	no change	-0.18	-1.32	inactive
HTR3E (5-hydroxytryptamine receptor 3E)	no change	no change	0.28	-0.45	inactive
RPL21P44 (ribosomal protein L21 pseudogene 44)	no change	no change	-0.58	1.78	inactive
UMOD (uromodulin)	no change	no change	-0.75	0.04	inactive
C19orf18 (chromosome 19 open reading frame 18)	no change	no change	0.52	1.06	inactive
PTH (parathyroid hormone)	no change	no change	0.92	0.02	inactive
FAM78B (family with sequence similarity 78 member B)	no change	no change	-0.22	1.72	inactive
PCDHGA5 (protocadherin gamma subfamily A, 5)	no change	no change	0.06	-0.9	inactive
NPC2 (NPC intracellular cholesterol transporter 2)	no change	no change	0.59	-0.34	inactive
HNRNPDL (heterogeneous nuclear ribonucleoprotein D like)	no change	no change	0.84	-0.84	inactive
UBL4A (ubiquitin like 4A)	no change	no change	1.16	0.03	inactive
CDC6 (cell division cycle 6)	no change	no change	-2.53	1.42	inactive
AKR7L (aldo-keto reductase family 7 like (gene/pseudogene))	no change	no change	0.76	0.28	inactive
ETS1 (ETS proto-oncogene 1, transcription factor)	no change	no change	-1.19	-1.16	inactive
CBLIF (cobalamin binding intrinsic factor)	no change	no change	1.47	0	inactive
NRXN2 (neurexin 2)	no change	no change	-0.23	-1.43	inactive
PAMR1	no change	no change	0.33	1.21	inactive
FKBP7 (FKBP prolyl isomerase 7)	no change	no change	-0.06	1.71	inactive
LCMT2 (leucine carboxyl methyltransferase 2)	no change	no change	0.8	2.04	inactive
MTFR1 (mitochondrial fission regulator 1)	no change	no change	-0.8	-0.08	inactive
ZNF175 (zinc finger protein 175)	no change	no change	1.26	1.38	inactive
FAF1 (Fas associated factor 1)	no change	no change	-0.6	-1.08	inactive
SPON2 (spondin 2)	no change	no change	-0.16	1.47	inactive
MORN3 (MORN repeat containing 3)	no change	no change	-0.8	0.44	inactive
LRRN2 (leucine rich repeat neuronal 2)	no change	no change	-0.16	1.94	inactive
OR1D5 (olfactory receptor family 1 subfamily D member 5)	no change	no change	1.73	-0.36	inactive
MMP23B (matrix metallopeptidase 23B)	no change	no change	0.77	-0.58	inactive
MTF1 (metal regulatory transcription factor 1)	no change	no change	-1.12	0.94	inactive
OR2W1 (olfactory receptor family 2 subfamily W member 1)	no change	no change	0.61	-0.43	inactive
TMEM52B (transmembrane protein 52B)	no change	no change	-0.14	2.75	inactive
TAF1B	no change	no change	-1.18	3.88	inactive

Just “viability hit class” (8 entries from above):
UMOD (uromodulin) = no change
C19orf18 (chromosome 19 open reading frame 18) = no change
PTH (parathyroid hormone) = no change
FAM78B (family with sequence similarity 78 member B) = no change
PCDHGA5 (protocadherin gamma subfamily A, 5) = no change
NPC2 (NPC intracellular cholesterol transporter 2) = no change
HNRNPDL (heterogeneous nuclear ribonucleoprotein D like) = no change
UBL4A (ubiquitin like 4A) = no change

The list goes on.
target	viability hit class	caspase hit class	viability robust z-score	caspase robust z-score	Call
CNMD (chondromodulin)	no change	no change	0.61	1.19	inactive
FOXI2 (forkhead box I2)	no change	no change	1.29	-0.68	inactive
CREG1 (cellular repressor of E1A stimulated genes 1)	no change	no change	0.86	0.13	inactive
NPEPL1 (aminopeptidase like 1)	RV2 (reduced viability)	no change	-3.25	-1.23	active
OR52H1 (olfactory receptor family 52 subfamily H member 1)	no change	no change	-0.24	-0.52	inactive
ARMCX3 (armadillo repeat containing X-linked 3)	no change	no change	0.58	-0.5	inactive
STARD5 (StAR related lipid transfer domain containing 5)	no change	no change	0.38	-0.28	inactive
PROC (protein C, inactivator of coagulation factors Va and VIIIa)	no change	no change	-1.88	2.93	inactive
GPATCH11 (G-patch domain containing 11)	no change	no change	-0.63	-0.38	inactive
SCLY (selenocysteine lyase)	no change	CA2 (caspase activation)	-2.26	7.74	active
TTC23L (tetratricopeptide repeat domain 23 like)	no change	no change	-1.15	0.56	inactive
TMEM109 (transmembrane protein 109)	no change	no change	0.56	-0.28	inactive
GUSB (glucuronidase beta)	no change	no change	-0.56	0.9	inactive
ARTN (artemin)	no change	no change	-1.1	-0.79	inactive
BIRC7 (baculoviral IAP repeat containing 7)	no change	no change	-0.62	2.07	inactive
PRB2 (proline rich protein BstNI subfamily 2)	no change	no change	-0.96	-0.24	inactive
PGM1 (phosphoglucomutase 1)	no change	no change	1.7	-0.68	inactive
VEGFC (vascular endothelial growth factor C)	no change	no change	0.9	1.12	inactive
SCN11A (sodium voltage-gated channel alpha subunit 11)	no change	no change	-1.12	0.63	inactive
FANCE (FA complementation group E)	no change	no change	-1.62	2.22	inactive
P2RY4 (pyrimidinergic receptor P2Y4)	no change	no change	0.78	-0.16	inactive
